Counter-ions that a name gives are not always drawn. This is one part of the list. Single values are uncertain, as repeats are few or missing.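 Three clinical Candida auris isolates (clades III, IV and I) from the CDC resistance isolate bank were grown in RPMI-1640 at 35°C. Growth was background-corrected OD600 relative to same-plate vehicle-only wells. Hits required over 50% inhibition in at least two strains and a plate-corrected B-score above 0.1.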
Experiments:
Assay in all cases: growth relative to vehicle control (OD600 ratio) (fraction); higher = less inhibition
Conditions in all cases: 24 h
C. auris AR-384 = test system: C. auris AR-384
C. auris AR-386 = test system: C. auris AR-386
C. auris AR-387 = test system: C. auris AR-387

| Structure (SMILES) | growth (C. auris AR-384; 1 µM) | growth (C. auris AR-384; 10 µM) | growth (C. auris AR-386; 1 µM) | growth (C. auris AR-386; 10 µM) | growth (C. auris AR-387; 1 µM) | growth (C. auris AR-387; 10 µM) |
| --- | --- | --- | --- | --- | --- | --- |
| Clc1ccc(COC(Cn2ccnc2)c2ccc(Cl)cc2Cl)c(Cl)c1 (stereo not given) [Miconazole Nitrate] | 0.63 | 0.24 | 0.6 | 0.59 | 0.04 | 0.02 |
| CCCCOC(=O)c1ccc(O)cc1 [Butylparaben] | 1.1 | 1.01 | 0.96 | 0.8 | 1 | 0.88 |
| CC[C@H](C)[C@@H]1NC(=O)[C@H](Cc2ccc(O)cc2)NC(=O)[C@@H](N)CSSC[C@@H](C(=O)N2CCC[C@H]2C(=O)N[C@@H](CC(C)C)C(=O)NCC(N)=O)NC(=O)[C@H](CC(N)=O)NC(=O)[C@H](CCC(N)=O)NC1=O [Oxytocin (Syntocinon)] | 0.56 | 0.47 | 0.55 | 0.67 | 0.68 | 0.52 |
| CO[C@H]1/C=C/O[C@@]2(C)Oc3c(C)c(O)c4c(O)c(c(/C=N/N5CCN(C)CC5)c(O)c4c3C2=O)NC(=O)/C(C)=C\C=C\[C@H](C)[C@H](O)[C@@H](C)[C@@H](O)[C@@H](C)[C@H](OC(C)=O)[C@@H]1C [Rifampin] | 1.16 | 0.91 | 0.8 | 0.77 | 1.02 | 0.9 |
| CN1C[C@@H]2C[C@H]1CN2c1cc2c(cc1F)c(=O)c(C(=O)O)cn2C1CC1 [Danofloxacin Mesylate] | 0.82 | 0.71 | 0.89 | 0.67 | 1.1 | 1.07 |
| CCCCCCc1ccc(O)cc1O [Hexylresorcinol] | 1.2 | 1.28 | 1.1 | 1.22 | 1.05 | 1.09 |
| Cc1ccc(Sc2ccccc2N2CCNCC2)c(C)c1 | 1.19 | 1.03 | 0.91 | 0.87 | 0.81 | 0.87 |
| CC(C)(O/N=C(\C(=O)N[C@@H]1C(=O)N2C(C(=O)[O-])=C(C[n+]3ccccc3)CS[C@H]12)c1csc(N)n1)C(=O)O [Ceftazidime] | 0.83 | 0.93 | 0.65 | 0.73 | 0.69 | 1.03 |
| Cc1onc(-c2ccccc2)c1-c1ccc(S(N)(=O)=O)cc1 [Valdecoxib] | 0.88 | 0.76 | 1.04 | 1.15 | 0.86 | 0.77 |
| Cc1oncc1C(=O)Nc1ccc(C(F)(F)F)cc1 [Leflunomide] | 0.71 | 1 | 0.64 | 0.89 | 0.78 | 0.94 |
| CCCNC(C)C(=O)Nc1c(C)csc1C(=O)OC (stereo not given) [Articaine HCl] | 1.18 | 1.21 | 0.91 | 0.98 | 1.03 | 0.84 |
| CCOC(=O)N[C@@H]1CC[C@@H]2[C@@H](C1)C[C@H]1C(=O)O[C@H](C)[C@H]1[C@H]2/C=C/c1ccc(-c2cccc(F)c2)cn1 [Vorapaxar] | 1.01 | 1.09 | 0.82 | 0.81 | 0.79 | 0.98 |
| NC12CC3CC(CC(C3)C1)C2 [Amantadine HCl] | 1.24 | 1.1 | 1.27 | 0.98 | 0.98 | 1.04 |
| CCN(CC)CCOC(=O)c1ccc(N)cc1Cl [Chloroprocaine HCl] | 1.14 | 0.91 | 0.98 | 1.04 | 0.83 | 1.03 |
| CC1(C)Cc2c(-c3ccccc3)c(-c3ccc(Cl)cc3)c(CC(=O)O)n2C1 [Licofelone] | 0.92 | 0.87 | 0.66 | 0.88 | 0.76 | 0.64 |
| CCCCCCCC(=O)N[C@H](CN1CCCC1)[C@H](O)c1ccc2c(c1)OCCO2 [Eliglustat] | 0.97 | 0.97 | 0.93 | 0.66 | 0.94 | 0.76 |
| CNS(=O)(=O)Cc1ccc2[nH]cc(CCN(C)C)c2c1 [Sumatriptan Succinate] | 0.97 | 0.49 | 0.53 | 1.07 | 0.86 | 0.92 |
| NCC[C@H](O)C(=O)N[C@@H]1C[C@H](N)[C@@H](O[C@H]2O[C@H](CN)[C@@H](O)[C@H](O)[C@H]2O)[C@H](O)[C@H]1O[C@H]1O[C@H](CO)[C@@H](O)[C@H](N)[C@H]1O [Amikacin disulfate] | 1.41 | 1.25 | 1.26 | 1.13 | 1.12 | 1.21 |
| CNC(=O)c1ccccc1Sc1ccc2c(/C=C/c3ccccn3)n[nH]c2c1 [Axitinib] | 0.78 | 0.7 | 0.58 | 0.92 | 1.19 | 0.63 |
| CN1CCN(CC(=O)N2c3ccccc3C(=O)Nc3cccnc32)CC1 [Pirenzepine dihydrochloride] | 0.87 | 0.66 | 0.8 | 0.54 | 0.83 | 0.84 |
| CC(C)(C)CC(C)(C)c1ccc(O)c(Cc2ccc(Cl)cc2Cl)c1 [Clofoctol] | 1.44 | 0.99 | 0.92 | 0.89 | 1.1 | 0.68 |
| Cc1cc(C2CCCCC2)n(O)c(=O)c1 [Ciclopirox] | 1.19 | 0.38 | 0.81 | 0.1 | 0.58 | 0.01 |
| CCOC(=O)C1=C[C@@H](OC(CC)CC)[C@H](NC(C)=O)[C@@H](N)C1 [Oseltamivir Phosphate] | 0.92 | 1.07 | 1.13 | 0.68 | 0.87 | 0.92 |

| Structure (SMILES) | growth (C. auris AR-384; 1 µM) | growth (C. auris AR-384; 10 µM) | growth (C. auris AR-386; 1 µM) | growth (C. auris AR-386; 10 µM) | growth (C. auris AR-387; 1 µM) | growth (C. auris AR-387; 10 µM) |
| --- | --- | --- | --- | --- | --- | --- |
| Cc1c(OCC(F)(F)F)ccnc1C[S+]([O-])c1nc2ccccc2[nH]1 (stereo not given) [Lansoprazole] | 1.2 | 1.35 | 1.24 | 1.05 | 0.85 | 0.75 |
| CSc1ccc2c(c1)N(CCC1CCCCN1C)c1ccccc1S2 (stereo not given) [Thioridazine HCl] | 1.16 | 1.21 | 1.38 | 1.32 | 1.48 | 1.44 |
| CC[C@H](C)C(=O)O[C@H]1C[C@@H](C)C=C2C=C[C@H](C)[C@H](CC[C@@H]3C[C@@H](O)CC(=O)O3)[C@H]21 [Lovastatin] | 1.14 | 1.41 | 1.27 | 1.19 | 1.4 | 1.51 |
| CS(=O)(=O)c1cccc(C[C@H](NC(=O)c2c(Cl)cc3c(c2Cl)CCN(C(=O)c2ccc4ccoc4c2)C3)C(=O)O)c1 [Lifitegrast] | 1.09 | 0.91 | 0.92 | 1.05 | 0.9 | 0.92 |
| C=C[C@H]1CN2CC[C@H]1C[C@@H]2[C@@H](O)c1ccnc2ccc(OC)cc12 [Quinidine sulfate] | 0.82 | 0.81 | 0.67 | 0.97 | 0.94 | 1.11 |
| CC(COc1ccccc1)N(CCCl)Cc1ccccc1 (stereo not given) [Phenoxybenzamine HCl] | 0.69 | 0.82 | 0.84 | 0.85 | 0.75 | 0.76 |
| CC(C)=CCC/C(C)=C/CC/C(C)=C/CSc1ccccc1C(=O)O [Salirasib] | 1.27 | 0.71 | 0.95 | 0.65 | 0.8 | 1.25 |
| CC[C@H](c1ccc(O)cc1)[C@@H](CC)c1ccc(O)cc1 [Hexestrol] | 0.92 | 1 | 1.03 | 1.36 | 1.19 | 0.88 |
| CN(CCOc1ccc(CC2SC(=O)NC2=O)cc1)c1ccccn1 (stereo not given) [Rosiglitazone HCl] | 0.9 | 0.93 | 1.05 | 1.13 | 1.22 | 1.28 |
| Cc1cc(O)cc(C)c1Cl [Chloroxylenol] | 0.85 | 0.82 | 0.86 | 0.89 | 1.03 | 0.83 |
| COc1ncc(-c2ccc3nccc(-c4ccnnc4)c3c2)cc1NS(=O)(=O)c1ccc(F)cc1F | 0.97 | 0.81 | 0.98 | 1.13 | 0.99 | 1.05 |
| CC1=C(CC(=O)O)c2cc(F)ccc2/C1=C\c1ccc([S+](C)[O-])cc1 (stereo not given) [Sulindac] | 0.77 | 0.66 | 0.75 | 0.68 | 0.7 | 0.71 |
| CC(C)[C@H](N)C(=O)OCC(CO)OCn1cnc2c(=O)[nH]c(N)nc21 (stereo not given in full) [Valganciclovir HCl] | 0.9 | 0.84 | 0.79 | 0.88 | 0.85 | 1.08 |
| COc1ccc([C@]2(C#N)CC[C@@H](C(=O)O)CC2)cc1OC1CCCC1 [Cilomilast] | 0.77 | 0.71 | 0.94 | 1.05 | 0.83 | 0.9 |
| CN1CCN(c2nc(C3=C(c4c[nH]c5ccccc45)C(=O)NC3=O)c3ccccc3n2)CC1 [Sotrastaurin] | 0.83 | 0.92 | 0.7 | 0.82 | 0.76 | 0.76 |
| CC(C)Oc1ccc(-c2nc(-c3cccc4c3CC[C@@H]4NCCO)no2)cc1C#N [Ozanimod (RPC1063)] | 1.06 | 1.2 | 0.86 | 1.15 | 0.82 | 0.9 |
| C=C1/C(=C\C=C2/CCC[C@]3(C)[C@@H]([C@H](C)/C=C/[C@@H](O)C4CC4)CC[C@@H]23)C[C@@H](O)C[C@@H]1O [Calcipotriene] | 0.92 | 1.37 | 0.78 | 1.25 | 0.98 | 1.3 |
| CCN(CC)C(=O)/C(C#N)=C/c1cc(O)c(O)c([N+](=O)[O-])c1 [Entacapone] | 0.8 | 0.8 | 1.26 | 0.64 | 0.63 | 0.87 |
| CN(C)c1ccc(O)c2c1C[C@H]1C[C@H]3[C@H](N(C)C)C(O)=C(C(N)=O)C(=O)[C@@]3(O)C(O)=C1C2=O [Minocycline HCl] | 0.73 | 1.26 | 0.92 | 1.12 | 0.69 | 0.99 |
| O=C(O)c1cc(-c2ccc(F)cc2F)ccc1O [Diflunisal] | 0.93 | 0.79 | 0.88 | 0.68 | 0.6 | 0.53 |
| CN[C@H](CC(C)C)C(=O)N[C@H]1C(=O)N[C@@H](CC(N)=O)C(=O)N[C@H]2C(=O)N[C@H]3C(=O)N[C@H](C(=O)N[C@H](C(=O)O)c4cc(O)cc(O)c4-c4cc3ccc4O)[C@H](O)c3ccc(c(Cl)c3)Oc3cc2cc(c3O[C@@H]2O[C@H](CO)[C@@H](O)[C@H](O)[C@H]2O[C@H]2C[C@](C)(N)[C@H](O)[C@H](C)O2)Oc2ccc(cc2Cl)[C@H]1O [Vancomycin HCl] | 0.74 | 1.25 | 0.98 | 1.01 | 1.07 | 1.25 |
| CCCC(CCC)C(=O)O[C@H]1C[C@H]2CC[C@@H](C1)[N+]2(C)C [Anisotropine Methylbromide] | 0.86 | 0.83 | 1.08 | 1 | 0.66 | 0.92 |

Gathered by group: the entries above containing fluorine.

| Structure (SMILES) | growth (C. auris AR-384; 1 µM) | growth (C. auris AR-384; 10 µM) | growth (C. auris AR-386; 1 µM) | growth (C. auris AR-386; 10 µM) | growth (C. auris AR-387; 1 µM) | growth (C. auris AR-387; 10 µM) |
| --- | --- | --- | --- | --- | --- | --- |
| CN1C[C@@H]2C[C@H]1CN2c1cc2c(cc1F)c(=O)c(C(=O)O)cn2C1CC1 [Danofloxacin Mesylate] | 0.82 | 0.71 | 0.89 | 0.67 | 1.1 | 1.07 |
| Cc1oncc1C(=O)Nc1ccc(C(F)(F)F)cc1 [Leflunomide] | 0.71 | 1 | 0.64 | 0.89 | 0.78 | 0.94 |
| CCOC(=O)N[C@@H]1CC[C@@H]2[C@@H](C1)C[C@H]1C(=O)O[C@H](C)[C@H]1[C@H]2/C=C/c1ccc(-c2cccc(F)c2)cn1 [Vorapaxar] | 1.01 | 1.09 | 0.82 | 0.81 | 0.79 | 0.98 |
| Cc1c(OCC(F)(F)F)ccnc1C[S+]([O-])c1nc2ccccc2[nH]1 (stereo not given) [Lansoprazole] | 1.2 | 1.35 | 1.24 | 1.05 | 0.85 | 0.75 |
| COc1ncc(-c2ccc3nccc(-c4ccnnc4)c3c2)cc1NS(=O)(=O)c1ccc(F)cc1F | 0.97 | 0.81 | 0.98 | 1.13 | 0.99 | 1.05 |
| CC1=C(CC(=O)O)c2cc(F)ccc2/C1=C\c1ccc([S+](C)[O-])cc1 (stereo not given) [Sulindac] | 0.77 | 0.66 | 0.75 | 0.68 | 0.7 | 0.71 |
| O=C(O)c1cc(-c2ccc(F)cc2F)ccc1O [Diflunisal] | 0.93 | 0.79 | 0.88 | 0.68 | 0.6 | 0.53 |

Reference: the supplement of paper PMC10470496
